Results reported in the supplement of paper PMC12889115.
The other results are listed elsewhere or left out. Values are raw readings; no control value is given beside them.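 Primary screen: polymyxin B was added at a level permeabilizing Salmonella outer membranes while sparing inner membranes. DMSO wells, both with and without polymyxin B, established maximum growth. Plate-to-plate variation meant each plate was ranked on its own, and the lowest-OD600 compounds were selected as hits.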

Test system: Salmonella enterica serovar Typhimurium SL1344
Assay: bacterial growth OD600 after 18 h with compound and polymyxin B; higher = more bacterial growth (less inhibition)
Settings: 50 µM, Mueller-Hinton broth

Compound	bacterial growth OD600 (polymyxin B 1 µg/mL)	bacterial growth OD600 (polymyxin B 0.75 µg/mL)
O=C(c1csc2nc(-c3ccccc3)cn12)N1CCN(Cc2ccc3c(c2)OCO3)CC1	0.971	
CN(C)S(=O)(=O)NCC1CCCN(Cc2ccc3c(c2)OCCO3)C1 (configuration not stated)		0.838
CSc1nc(C(=O)N2CCOC(CC3CCCCC3)C2)cs1 (configuration not stated)		0.716
O=C(c1ccc2c(c1)OCO2)N1CCCC(Nc2ccc(F)cc2)C1 (configuration not stated)	0.931	
CCOC(=O)C1(Cc2cccc(OC)c2)CCN(Cc2ccc(OC)c(O)c2)CC1	1.11	
CSCC(=O)N1CCCC(CCc2ccccc2C)C1 (configuration not stated)		0.327
Cc1cc(C)n(CCC(=O)N2CCc3c(cnc(C)c3CNS(=O)(=O)c3cccs3)C2)n1		0.818
O=C(c1cc(Cn2cnc3ccccc32)[nH]n1)N1CCSCC1	0.928	
COC1CCN(c2ccc(C(=O)NCCCc3c(C)noc3C)cn2)CC1	1.09	
O=C(NCCc1cccc(F)c1)C1CCCN(C2CCN(C(=O)C3CC3)CC2)C1 (configuration not stated)	0.81	
Cn1c(-c2ccncc2)nc2cc(C(=O)NCc3ccccc3Cl)cc(NC(=O)C3CCC3)c21		0.776
CC(=O)c1ccc(OCc2cc(C(=O)N(C)CC(O)c3ccccc3)no2)cc1 (configuration not stated)	0.933	
Cc1cc(C(=O)NC2CCCc3nc(-c4ccccc4)ncc32)no1 (configuration not stated)	0.993	
COc1cccc(C(=O)N2CCc3c(cnc(C)c3CNS(=O)(=O)c3cccs3)C2)c1OC		0.82
O=C(c1n[nH]c2c1CCC2)N1CC[C@@H](N2CCN(c3ccccc3F)CC2)[C@H](O)C1	0.944	
Cc1nc(CN(C)C(=O)CC2(c3ccccc3)CC(=O)N(CCCOc3cccnc3)C2=O)cs1 (configuration not stated)		0.951

Compound	bacterial growth OD600 (polymyxin B 1 µg/mL)	bacterial growth OD600 (polymyxin B 0.75 µg/mL)
Cc1nnc(-c2cccc(NC(=O)C3CCN(C(=O)C4CC45CCC5)CC3)c2)s1 (configuration not stated)	0.976	
CCOC(=O)C1(Cc2ccccc2C)CCCN(Cc2cc[nH]n2)C1 (configuration not stated)	0.9	
COc1ccc(F)c(CC2(CCC(=O)NCCc3nc4ccccc4c(=O)[nH]3)CCC(=O)N2)c1 (configuration not stated)		0.806
O=C(NCc1ccncc1)c1ccc(OC2CCN(Cc3ccc(CO)o3)CC2)cc1	1.21	
CC(C)N(C)CC1(O)CCCN(CCc2ccccc2)C1=O (configuration not stated)	0.968	
Cc1ccc(C(=O)NC2CC(C)(C)Cc3nc(N4CCOCC4)ncc32)cn1 (configuration not stated)	0.852	
CC(C)(C)C(=O)NC1CC(=O)N(Cc2ccc(F)cc2)C1 (configuration not stated)	0.856	
CN(C(=O)c1ccc(OC2CCN(S(=O)(=O)N(C)C)CC2)cc1)C(C1CC1)C1CC1	1.07	
O=C1CCC(CCNCCOc2ccc(F)cc2)N1CC1CCCCC1 (configuration not stated)		0.67
Cc1ccc(C2(c3noc(CN4CCC(Oc5cccnc5)CC4)n3)CCCC2)cc1	0.017	
COC(=O)c1cccc(C(=O)N2CCCC(Nc3ccc(F)cc3)C2)c1 (configuration not stated)	0.878	
Cc1cccc(-n2cc(CN3CCOCC3)c(-c3cccc(F)c3)n2)c1	0.496	
Cc1ccc(Oc2ncccc2CNC(=O)c2ccc(CN(C)C)o2)c(F)c1F	1.05	
O=C(Nc1cccc(-n2cccn2)c1)C1CCCN1C(=O)c1ccccn1 (configuration not stated)	0.816	
COc1ccc(C(=O)N2CCC(C(Cc3ccccc3)N(C)C(=O)c3cc(C)nn3C)CC2)cc1F (configuration not stated)		0.964
CCC(NCc1c[nH]nc1-c1ccc(C)c(C)c1)c1ccc(F)cc1 (configuration not stated)	0.022	

Given in markdown: entries from further up.

| Compound | bacterial growth OD600 (polymyxin B 1 µg/mL) | bacterial growth OD600 (polymyxin B 0.75 µg/mL) |
| --- | --- | --- |
| Cc1cccc(-n2cc(CN3CCOCC3)c(-c3cccc(F)c3)n2)c1 | 0.496 |  |
| Cc1ccc(Oc2ncccc2CNC(=O)c2ccc(CN(C)C)o2)c(F)c1F | 1.05 |  |
